Values quoted from earlier work as cited in US5342947A, “Preparation of water soluble camptothecin derivatives” (Glaxo Inc., priority 1992, dated 1994).

Conditions: in words, background; cited from earlier work

CC[C@@]1(O)C(=O)OCc2c1cc1n(c2=O)Cc2cc3ccccc3nc2-1 [camptothecin, Camptothecin]
solubility in water / physiologically compatible, aqueous media: essentially insoluble
